The other results are listed elsewhere or left out.
Assays:
Test in all cases: log2 fold change, soluble protein after heating vs DMSO (PISA); higher = thermal stabilisation; K562 lysate, 10 uM; active = over 0.2 and 3.5 SD of the protein, either way, in both replicates (recomputed)
[1] = compound: C=CC(=O)N1CCC[C@@H](n2nc(-c3ccc(Oc4ccccc4)cc3)c3c(N)ncnc32)C1 [ibrutinib]
Procedure, shortened: (§1)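 A 30 min treatment with 10 μM compound was applied to crude K562 extract at 1 mg/mL protein in PBS pH 7.4 with 1 mM MgCl2. Heating for 3 min spanned 48°C-58°C, after which aliquots were pooled, adjusted to 0.5% NP-40 at 4°C and spun at 21,000xg for 90 min. TMTpro 16plex LC-MS/MS of the supernatant, with channel sums equalised, gave values recorded as log-two fold change in thermal stability against solvent controls, from duplicates.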

Sequences of proteins named here, by UniProt entry; tags and fusion partners are left off. A change or cut given only in a name is not applied to a line headed by its entry.
UniProt Q9BVT8: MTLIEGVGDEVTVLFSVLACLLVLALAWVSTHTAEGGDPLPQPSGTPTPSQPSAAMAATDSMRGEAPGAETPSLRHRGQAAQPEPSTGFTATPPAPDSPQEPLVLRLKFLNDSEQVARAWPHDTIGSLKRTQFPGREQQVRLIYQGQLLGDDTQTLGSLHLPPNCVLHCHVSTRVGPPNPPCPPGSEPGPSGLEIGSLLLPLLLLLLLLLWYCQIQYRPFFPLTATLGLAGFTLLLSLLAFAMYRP
UniProt Q9NQ34: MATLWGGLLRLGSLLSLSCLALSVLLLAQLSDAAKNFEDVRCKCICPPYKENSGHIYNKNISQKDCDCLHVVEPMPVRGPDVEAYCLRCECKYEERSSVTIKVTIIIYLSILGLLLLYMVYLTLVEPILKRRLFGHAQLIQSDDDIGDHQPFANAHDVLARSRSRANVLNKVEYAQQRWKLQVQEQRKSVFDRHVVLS
UniProt Q6NUQ4: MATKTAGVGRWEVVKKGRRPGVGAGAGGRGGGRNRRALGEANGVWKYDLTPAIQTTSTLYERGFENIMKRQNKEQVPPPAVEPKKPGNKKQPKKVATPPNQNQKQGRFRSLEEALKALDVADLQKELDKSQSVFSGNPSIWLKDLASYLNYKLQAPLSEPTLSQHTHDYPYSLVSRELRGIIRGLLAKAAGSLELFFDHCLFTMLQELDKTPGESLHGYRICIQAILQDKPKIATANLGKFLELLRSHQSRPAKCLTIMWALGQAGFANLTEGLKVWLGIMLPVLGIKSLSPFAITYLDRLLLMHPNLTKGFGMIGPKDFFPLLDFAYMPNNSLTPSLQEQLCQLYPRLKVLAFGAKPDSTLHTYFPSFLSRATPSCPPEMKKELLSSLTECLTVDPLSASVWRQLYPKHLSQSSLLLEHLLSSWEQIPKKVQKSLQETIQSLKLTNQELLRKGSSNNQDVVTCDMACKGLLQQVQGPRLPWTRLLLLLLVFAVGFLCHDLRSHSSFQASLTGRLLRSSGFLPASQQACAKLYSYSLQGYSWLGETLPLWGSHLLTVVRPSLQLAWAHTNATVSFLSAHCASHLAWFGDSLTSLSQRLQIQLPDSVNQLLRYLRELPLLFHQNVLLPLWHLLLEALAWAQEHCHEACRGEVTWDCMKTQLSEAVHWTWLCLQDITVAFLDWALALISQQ
UniProt A0PJW6: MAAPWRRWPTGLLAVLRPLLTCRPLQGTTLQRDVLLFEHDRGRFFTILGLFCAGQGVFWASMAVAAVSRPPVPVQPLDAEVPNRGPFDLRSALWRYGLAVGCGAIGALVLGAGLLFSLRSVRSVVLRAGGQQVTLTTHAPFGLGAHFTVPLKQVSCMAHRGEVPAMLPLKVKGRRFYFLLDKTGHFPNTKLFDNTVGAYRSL
UniProt P06753, whole entry, looked up: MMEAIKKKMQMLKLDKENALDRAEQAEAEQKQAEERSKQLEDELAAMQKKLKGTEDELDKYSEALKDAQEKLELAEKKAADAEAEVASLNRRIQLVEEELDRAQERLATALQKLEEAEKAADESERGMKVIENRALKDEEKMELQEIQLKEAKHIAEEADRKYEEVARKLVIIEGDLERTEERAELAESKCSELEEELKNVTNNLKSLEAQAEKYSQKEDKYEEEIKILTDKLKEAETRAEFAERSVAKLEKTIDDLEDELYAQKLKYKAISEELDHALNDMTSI
UniProt Q12767: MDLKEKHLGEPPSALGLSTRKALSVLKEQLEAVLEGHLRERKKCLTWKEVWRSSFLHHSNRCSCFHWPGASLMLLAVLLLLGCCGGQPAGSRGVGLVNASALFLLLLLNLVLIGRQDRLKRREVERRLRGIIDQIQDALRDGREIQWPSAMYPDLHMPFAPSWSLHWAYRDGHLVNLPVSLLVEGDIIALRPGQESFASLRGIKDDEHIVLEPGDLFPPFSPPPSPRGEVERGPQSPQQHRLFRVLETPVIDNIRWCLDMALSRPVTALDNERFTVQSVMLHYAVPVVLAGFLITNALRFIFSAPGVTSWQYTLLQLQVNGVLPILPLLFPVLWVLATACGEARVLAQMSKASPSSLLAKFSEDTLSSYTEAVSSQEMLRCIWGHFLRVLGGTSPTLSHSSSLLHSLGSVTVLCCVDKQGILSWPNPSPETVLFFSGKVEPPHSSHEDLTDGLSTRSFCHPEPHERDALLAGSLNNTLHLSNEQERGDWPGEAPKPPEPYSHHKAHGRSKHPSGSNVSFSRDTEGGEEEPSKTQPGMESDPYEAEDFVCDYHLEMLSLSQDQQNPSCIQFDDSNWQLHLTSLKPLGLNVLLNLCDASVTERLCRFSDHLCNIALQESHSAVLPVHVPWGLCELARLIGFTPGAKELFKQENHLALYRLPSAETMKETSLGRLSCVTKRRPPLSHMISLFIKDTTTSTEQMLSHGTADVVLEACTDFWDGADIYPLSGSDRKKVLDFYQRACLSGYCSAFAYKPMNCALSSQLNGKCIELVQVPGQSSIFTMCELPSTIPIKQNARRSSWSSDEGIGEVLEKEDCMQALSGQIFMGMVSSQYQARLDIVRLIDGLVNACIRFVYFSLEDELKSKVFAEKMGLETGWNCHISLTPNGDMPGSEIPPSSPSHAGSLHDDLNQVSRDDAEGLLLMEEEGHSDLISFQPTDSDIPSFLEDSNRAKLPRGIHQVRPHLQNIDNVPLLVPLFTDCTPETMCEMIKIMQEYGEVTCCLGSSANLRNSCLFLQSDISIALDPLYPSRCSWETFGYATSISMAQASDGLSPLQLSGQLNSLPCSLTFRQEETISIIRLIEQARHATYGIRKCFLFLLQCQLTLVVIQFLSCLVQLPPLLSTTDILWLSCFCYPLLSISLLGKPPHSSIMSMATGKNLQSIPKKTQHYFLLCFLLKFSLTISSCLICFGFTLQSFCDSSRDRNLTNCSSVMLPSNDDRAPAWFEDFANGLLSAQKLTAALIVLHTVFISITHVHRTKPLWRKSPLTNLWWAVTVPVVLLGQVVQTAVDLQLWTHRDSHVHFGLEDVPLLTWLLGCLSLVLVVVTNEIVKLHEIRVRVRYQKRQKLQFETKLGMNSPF
UniProt P21580: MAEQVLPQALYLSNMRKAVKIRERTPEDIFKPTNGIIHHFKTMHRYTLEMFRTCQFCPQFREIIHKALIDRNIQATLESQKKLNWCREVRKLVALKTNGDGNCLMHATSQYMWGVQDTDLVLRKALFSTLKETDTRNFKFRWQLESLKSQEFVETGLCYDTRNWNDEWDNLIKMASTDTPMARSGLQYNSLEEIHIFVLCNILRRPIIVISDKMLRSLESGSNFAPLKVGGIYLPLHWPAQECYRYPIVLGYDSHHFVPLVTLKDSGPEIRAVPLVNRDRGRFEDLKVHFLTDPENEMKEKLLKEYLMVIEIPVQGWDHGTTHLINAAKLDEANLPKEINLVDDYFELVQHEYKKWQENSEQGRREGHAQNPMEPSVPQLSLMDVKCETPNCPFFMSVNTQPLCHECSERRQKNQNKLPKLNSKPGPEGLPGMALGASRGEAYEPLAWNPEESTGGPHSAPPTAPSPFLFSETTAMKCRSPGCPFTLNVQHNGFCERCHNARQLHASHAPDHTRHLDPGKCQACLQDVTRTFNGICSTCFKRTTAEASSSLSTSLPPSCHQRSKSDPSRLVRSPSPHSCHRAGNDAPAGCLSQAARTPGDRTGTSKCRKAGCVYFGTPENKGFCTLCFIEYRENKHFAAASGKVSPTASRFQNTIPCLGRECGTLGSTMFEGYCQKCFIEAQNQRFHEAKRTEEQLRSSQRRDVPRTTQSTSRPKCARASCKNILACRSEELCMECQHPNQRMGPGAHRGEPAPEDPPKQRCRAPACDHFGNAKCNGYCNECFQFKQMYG
UniProt Q9H3S4: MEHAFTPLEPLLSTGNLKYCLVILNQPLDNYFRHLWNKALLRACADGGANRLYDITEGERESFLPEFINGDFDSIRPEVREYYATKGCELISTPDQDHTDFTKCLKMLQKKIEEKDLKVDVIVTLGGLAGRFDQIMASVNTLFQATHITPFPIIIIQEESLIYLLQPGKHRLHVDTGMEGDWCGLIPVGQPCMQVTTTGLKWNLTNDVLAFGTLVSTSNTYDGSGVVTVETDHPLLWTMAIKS
UniProt Q9HCN3: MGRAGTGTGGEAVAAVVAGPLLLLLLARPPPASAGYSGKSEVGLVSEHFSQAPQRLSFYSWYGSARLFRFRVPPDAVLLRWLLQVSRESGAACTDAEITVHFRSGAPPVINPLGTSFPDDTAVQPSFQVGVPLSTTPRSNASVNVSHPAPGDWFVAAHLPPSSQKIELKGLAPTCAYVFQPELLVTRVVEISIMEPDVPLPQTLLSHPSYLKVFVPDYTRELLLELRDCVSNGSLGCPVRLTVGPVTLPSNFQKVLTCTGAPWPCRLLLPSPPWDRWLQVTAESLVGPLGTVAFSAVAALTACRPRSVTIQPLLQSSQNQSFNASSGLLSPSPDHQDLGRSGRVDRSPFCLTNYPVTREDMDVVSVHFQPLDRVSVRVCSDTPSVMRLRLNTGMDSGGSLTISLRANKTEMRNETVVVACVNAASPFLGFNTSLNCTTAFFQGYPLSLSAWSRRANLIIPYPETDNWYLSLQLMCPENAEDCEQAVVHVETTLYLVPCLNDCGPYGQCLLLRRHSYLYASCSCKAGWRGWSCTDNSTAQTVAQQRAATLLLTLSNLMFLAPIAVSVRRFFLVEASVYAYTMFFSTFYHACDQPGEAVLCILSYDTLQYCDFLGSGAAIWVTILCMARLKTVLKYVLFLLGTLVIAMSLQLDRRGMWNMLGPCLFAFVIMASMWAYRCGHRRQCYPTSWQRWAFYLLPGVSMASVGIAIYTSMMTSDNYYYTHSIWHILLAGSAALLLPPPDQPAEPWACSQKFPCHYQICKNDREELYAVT
UniProt Q9BTV4: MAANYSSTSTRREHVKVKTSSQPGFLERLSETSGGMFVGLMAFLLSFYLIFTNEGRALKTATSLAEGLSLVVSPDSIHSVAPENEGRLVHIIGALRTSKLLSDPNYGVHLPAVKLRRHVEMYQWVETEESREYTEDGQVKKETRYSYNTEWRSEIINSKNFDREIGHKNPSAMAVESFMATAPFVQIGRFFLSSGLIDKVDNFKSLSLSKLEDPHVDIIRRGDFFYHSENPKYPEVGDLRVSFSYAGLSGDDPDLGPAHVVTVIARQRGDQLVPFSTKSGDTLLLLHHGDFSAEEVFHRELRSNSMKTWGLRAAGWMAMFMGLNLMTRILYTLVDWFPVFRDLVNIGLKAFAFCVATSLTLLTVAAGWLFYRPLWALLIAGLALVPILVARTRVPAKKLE

[2] = compound: CC(=O)c1cnc2ccc(-c3cc(Cl)c(O)c(Cl)c3)nc2c1N[C@H]1CC[C@H](CN(C)C)CC1
Procedure, shortened: as §1

[3] = compound: CC(C)(C)Cn1c(N)nc2ccc(-c3[nH]c(C(C)(C)C)nc3-c3ccc(F)cc3)nc21 [ralimetinib]
Procedure, shortened: as §1

[4] = compound: CC(C)(O)CC(=O)NCCn1ccc2ncnc(Nc3ccc(Oc4cccc(C(F)(F)F)c4)c(Cl)c3)c21
Procedure, shortened: as §1

[5] = compound: CC(C)C1=C2N=C(C=C(N2N=C1)NCC3=CC=CC=C3)NCCCCCCN
Procedure, shortened: as §1

[6] = compound: CC1=C(C(CC(=O)N1)C2=CC=C(C=C2)C(F)(F)F)C(=O)NC3=C(C=C4C(=C3)C=NN4)F
Procedure, shortened: as §1

[7] = compound: CC1=C(C2=C(C=C1)C(=O)C3=CC=CC=C3N2CCCN)C
Procedure, shortened: as §1

[8] = compound: CC1=C(C=C(C=C1)NC(=O)C2=CC(=CC=C2)C(C)(C)C#N)NC3=CC4=C(C=C3)N=CN(C4=O)C
Procedure, shortened: as §1

[9] = compound: CC1=C(C=C(C=C1)NC(=O)C2=CC(=CC=C2)N(C)C)NC(=O)C3=CC=C(C=C3)O
Procedure, shortened: as §1

[10] = compound: CC1=CC=C(C=C1)SC2=C3C=C(SC3=CN=C2)C(=O)N
Procedure, shortened: as §1

[11] = compound: CCCS(=O)(=O)Nc1ccc(F)c(C(=O)c2c[nH]c3ncc(-c4ccc(Cl)cc4)cc23)c1F [vemurafenib]
Procedure, shortened: as §1

[12] = compound: CCCS(=O)(=O)Nc1ccc(F)c(C(=O)c2c[nH]c3ncc(Cl)cc23)c1F
Procedure, shortened: as §1

[13] = compound: CCN(CCCOc1ccc2c(Nc3cc(CC(=O)Nc4cccc(F)c4)[nH]n3)ncnc2c1)CCOP(=O)(O)O [barasertib]
Procedure, shortened: as §1

[14] = compound: CC[C@@H]1C(=O)N(C)c2cnc(Nc3ccc(C(=O)NC4CCN(C)CC4)cc3OC)nc2N1C1CCCC1
Procedure, shortened: as §1

[15] = compound: CC[C@@H]1C(=O)N(C)c2cnc(Nc3ccc(C(=O)N[C@H]4CC[C@H](N5CCN(CC6CC6)CC5)CC4)cc3OC)nc2N1C(C)C [volasertib]
Procedure, shortened: as §1

[16] = compound: CCn1c(C(=O)N(C2CC2)C2CC2)cc2c3c(ncn3C)c(Nc3cc(C)n(C)n3)nc21
Procedure, shortened: as §1

[17] = compound: CCn1cc(-c2ccnc3[nH]c(-c4cccc(CN(C)C)c4)cc23)c(-c2ccc(NC(=O)N(C)C)cc2)n1
Procedure, shortened: as §1

[18] = compound: CN1CCC(CNc2ccc3ncc(-c4cccc(OC(F)(F)F)c4)n3n2)CC1
Procedure, shortened: as §1

[19] = compound: CN1CCN(CCOc2cc(OC3CCOCC3)c3c(Nc4c(Cl)ccc5c4OCO5)ncnc3c2)CC1 [saracatinib]
Procedure, shortened: as §1

[20] = compound: CN1CCN(c2nc(C3=C(c4c[nH]c5ccccc45)C(=O)NC3=O)c3ccccc3n2)CC1 [sotrastaurin]
Procedure, shortened: as §1

Measured: log2 fold change

TMUB1 (UniProt Q9BVT8)
inactive: [1] 0.032 | [2] 0.048 | [3] 0.075 | [4] 0.01 | [5] 0.013 | [6] 0.033 | [7] 0.075 | [8] -0.102 | [9] 0.043 | [10] 0.105 | [11] 0.018 | [12] -0.036 | [13] 0.054 | [14] -0.051 | [15] -0.035 | [16] 0.087 | [17] 0.064 | [18] -0.059 | [19] 0.122 | [20] 0.066

TMEM9B (UniProt Q9NQ34)
inactive: [1] 0.095 | [2] -0.018 | [3] -0.035 | [4] -0.084 | [5] 0.101 | [6] 0.022 | [7] 0.027 | [8] 0.025 | [9] -0.14 | [10] 0.023 | [11] -0.034 | [12] 0.008 | [13] 0.075 | [14] 0 | [15] 0.079 | [16] 0.143 | [17] 0.146 | [18] -0.052 | [19] 0.032 | [20] -0.003

TMEM214 (UniProt Q6NUQ4)
inactive: [1] 0.036 | [2] 0.022 | [3] 0.017 | [4] -0.034 | [5] 0.023 | [6] 0.022 | [7] 0.155 | [8] -0.028 | [9] -0.015 | [10] 0 | [11] 0.021 | [12] 0.004 | [13] 0.074 | [14] 0.076 | [15] -0.044 | [16] -0.015 | [17] 0.044 | [18] 0.012 | [19] 0.081 | [20] 0.004

TMEM245 (UniProt Q9H330)
inactive: [1] -0.008 | [2] 0.016 | [3] 0.035 | [4] 0.005 | [5] -0.043 | [6] -0.04 | [7] 0.042 | [8] -0.045 | [9] -0.044 | [10] -0.046 | [11] 0.055 | [12] -0.018 | [13] 0.011 | [14] 0.05 | [15] 0.025 | [16] 0.1 | [17] -0.06 | [18] 0.085 | [19] 0.052 | [20] 0.038

TMEM223 (UniProt A0PJW6)
inactive: [1] 0.081 | [2] 0.014 | [3] 0.174 | [4] 0.203 | [5] -0.039 | [6] 0.058 | [7] 0.05 | [8] -0.224 | [9] 0 | [10] 0.025 | [11] 0.133 | [12] -0.09 | [13] 0.003 | [14] -0.236 | [15] 0.137 | [16] 0.228 | [17] -0.049 | [18] -0.106 | [19] 0.039 | [20] 0.044

TNIK (UniProt C9J338)
inactive: [1] 0.041 | [2] -0.076 | [5] 0.025 | [7] -0.042 | [8] 0.16 | [10] -0.114 | [11] 0.151 | [12] 0.064 | [13] 0.028 | [14] 0.171 | [15] -0.011 | [17] -0.51 | [18] 0.341 | [19] 0.033 | [20] -0.026

TPM3 (UniProt P06753)
inactive: [1] 0.009 | [2] -0.001 | [3] -0.028 | [4] 0.022 | [5] 0.013 | [6] -0.028 | [7] 0.013 | [8] -0.038 | [9] -0.016 | [10] -0.007 | [11] -0.008 | [12] 0.009 | [13] -0.02 | [14] 0.043 | [15] 0.021 | [16] 0.013 | [17] 0.182 | [18] -0.062 | [19] -0.011 | [20] -0.031

TMEM94 isoform 2 (UniProt Q12767)
inactive: [1] -0.111 | [2] -0.138 | [3] -0.035 | [4] 0.064 | [5] 0.034 | [7] -0.042 | [8] -0.059 | [9] -0.013 | [10] -0.094 | [11] -0.013 | [12] -0.021 | [13] 0.292 | [14] -0.011 | [15] 0.028 | [16] -0.099 | [19] 0.09 | [20] -0.059

TNFAIP3 (UniProt P21580)
inactive: [1] -0.123 | [2] -0.1 | [3] -0.056 | [4] 0.005 | [5] -0.045 | [6] 0.003 | [7] 0.016 | [8] -0.035 | [9] 0.068 | [10] 0.053 | [12] 0.004 | [13] -0.015 | [14] -0.412 | [15] -0.063 | [16] 0.051 | [17] -0.009 | [18] 0.017 | [19] 0.029 | [20] -0.006

TPK1 (UniProt Q9H3S4)
inactive: [1] 0.193 | [2] 0.01 | [3] -0.047 | [4] -0.027 | [5] 0.008 | [6] 0.06 | [7] -0.017 | [9] -0.04 | [10] 0.014 | [11] 0.03 | [12] 0.018 | [13] -0.093 | [14] -0.007 | [15] -0.05 | [16] -0.045 | [17] -0.053 | [18] 0.085 | [19] 0.025

TMEM8A (UniProt Q9HCN3)
inactive: [1] 0.267 | [2] -0.015 | [5] -0.064 | [10] 0.035 | [11] 0.022 | [12] 0.059 | [13] 0.142 | [14] -0.084 | [15] -0.176 | [17] -0.085 | [18] 0.015

TMEM43 (UniProt Q9BTV4)
inactive: [1] 0.013 | [2] -0.018 | [3] 0.019 | [4] -0.03 | [5] -0.016 | [6] 0.023 | [7] -0.009 | [8] 0.008 | [9] -0.002 | [10] -0.023 | [11] 0.026 | [12] 0.039 | [13] 0.024 | [14] 0.018 | [15] 0.008 | [16] -0.046 | [17] -0.061 | [18] 0.078 | [19] 0.042 | [20] 0.021

Copied from the results shown (two entries):
TPM3 (UniProt P06753)
inactive: [1] 0.009 | [2] -0.001 | [3] -0.028 | [4] 0.022 | [5] 0.013 | [6] -0.028 | [7] 0.013 | [8] -0.038 | [9] -0.016 | [10] -0.007 | [11] -0.008 | [12] 0.009 | [13] -0.02 | [14] 0.043 | [15] 0.021 | [16] 0.013 | [17] 0.182 | [18] -0.062 | [19] -0.011 | [20] -0.031

TMEM94 isoform 2 (UniProt Q12767)
inactive: [1] -0.111 | [2] -0.138 | [3] -0.035 | [4] 0.064 | [5] 0.034 | [7] -0.042 | [8] -0.059 | [9] -0.013 | [10] -0.094 | [11] -0.013 | [12] -0.021 | [13] 0.292 | [14] -0.011 | [15] 0.028 | [16] -0.099 | [19] 0.09 | [20] -0.059

From the supplement of paper PMC10849652
